# Measurements taken from the supplement of paper PMC8728848.
# Some of the results follow.
# B1: CRT-1 (Homo sapiens), P27797 (protein)
# chain: MLLSVPLLLGLLGLAVAEPAVYFKEQFLDGDGWTSRWIESKHKSDFGKFVLSSGKFYGDEEKDKGLQTSQDARFYALSASFEPFSNKGQTLVVQFTVKHEQNIDCGGGYVKLFPNSLDQTDMHGDSEYNIMFGPDICGPGTKKVHVIFNYKGKNVLINKDIRCKDDEFTHLYTLIVRPDNTYEVKIDNSQVESGSLEDDWDFLPPKKIKDPDASKPEDWDERAKIDDPTDSKPEDWDKPEHIPDPDAKKPEDWDEEMDGEWEPPVIQNPEYKGEWKPRQIDNPDYKGTWIHPEIDNPEYSPDPSIYAYDNFGVLGLDLWQVKSGTIFDNFLITNDEAYAEEFGNETWGVTKAAEKQMKDKQDEEQRLKEEEEDKKRKEEEEAEDKEDDEDKDEDEEDEEDKEEDEEEDVPGQAKDEL
# Tests used:
# Assay in all cases: glycan array binding signal (z-score within array); higher = stronger binding
# Conditions in all cases: glycan notation: IUPAC condensed, linker removed
# [1] = target: GalNAc(b1-6)GalNAc
# Summary of the method: (§1)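 Glycan array binding is given as a within-array Z-score, which can be read as non-binding when negative. The arrays, 3228 of them, came from the Consortium for Functional Glycomics database and were retained only where the protein sequence was available. Z-scores were averaged across arrays of the same protein sequence at different concentrations or buffers and across linkers.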
# [2] = target: GalNAc3S(b1-4)GlcNAc
# Summary of the method: as §1
# [3] = target: GalNAc3S(b1-4)GlcNAc3S
# Summary of the method: as §1
# [4] = target: GalNAc3S(b1-4)[Fuc(a1-3)]GlcNAc
# Summary of the method: as §1
# [5] = target: GalNAc4S6S(b1-4)GlcNAc
# Summary of the method: as §1
# [6] = target: GalNAc6S(b1-4)GlcNAc
# Summary of the method: as §1
# [7] = target: Glc(a1-4)Glc
# Summary of the method: as §1
# [8] = target: Glc(a1-4)Glc(a1-4)Glc(a1-4)Glc
# Summary of the method: as §1
# [9] = target: Glc(a1-6)Glc(a1-6)Glc
# Summary of the method: as §1
# [10] = target: Glc(a1-6)Glc(a1-6)Glc(a1-6)Glc
# Summary of the method: as §1
# [11] = target: Glc(b1-4)Glc
# Summary of the method: as §1
# [12] = target: Glc(b1-6)Glc
# Summary of the method: as §1
# [13] = target: GlcA(b1-3)Gal
# Summary of the method: as §1
# [14] = target: GlcA(b1-3)GlcNAc
# Summary of the method: as §1
# [15] = target: GlcA(b1-6)Gal
# Summary of the method: as §1
# [16] = target: GlcA3S(b1-3)Gal(b1-4)GlcNAc(b1-2)Man
# Summary of the method: as §1
# [17] = target: GlcA3S(b1-3)Gal(b1-4)GlcNAc(b1-3)Gal(b1-4)Glc
# Summary of the method: as §1
# [18] = target: GlcNAc(a1-3)Gal(b1-4)GlcNAc
# Summary of the method: as §1
# [19] = target: GlcNAc(a1-4)Gal(b1-3)GlcNAc
# Summary of the method: as §1
# [20] = target: GlcNAc(a1-4)Gal(b1-4)GalNAc
# Summary of the method: as §1
# [21] = target: GlcNAc(a1-4)Gal(b1-4)GlcNAc
# Summary of the method: as §1
# [22] = target: GlcNAc(a1-4)Gal(b1-4)GlcNAc(b1-3)Gal(b1-4)Glc
# Summary of the method: as §1
# [23] = target: GlcNAc(a1-4)Gal(b1-4)GlcNAc(b1-3)Gal(b1-4)GlcNAc
# Summary of the method: as §1
# [24] = target: GlcNAc(a1-4)Gal(b1-4)GlcNAc(b1-3)Gal(b1-4)GlcNAc(b1-3)Gal(b1-4)GlcNAc
# Summary of the method: as §1
# [25] = target: GlcNAc(a1-4)Gal(b1-4)GlcNAc(b1-3)Gal(b1-4)[Fuc(a1-3)]GlcNAc(b1-3)Gal(b1-4)[Fuc(a1-3)]GlcNAc
# Summary of the method: as §1
# [26] = target: GlcNAc(a1-6)Gal(b1-4)GlcNAc
# Summary of the method: as §1
# [27] = target: GlcNAc(b1-2)Gal(b1-3)GalNAc
# Summary of the method: as §1
# [28] = target: GlcNAc(b1-2)Man(a1-3)[GlcNAc(b1-2)Man(a1-6)]Man(b1-4)GlcNAc(b1-4)GlcNAc
# Summary of the method: as §1
# [29] = target: GlcNAc(b1-2)Man(a1-3)[GlcNAc(b1-2)Man(a1-6)]Man(b1-4)GlcNAc(b1-4)[Fuc(a1-6)]GlcNAc
# Summary of the method: as §1
# [30] = target: GlcNAc(b1-2)Man(a1-3)[GlcNAc(b1-4)][GlcNAc(b1-2)Man(a1-6)]Man(b1-4)GlcNAc(b1-4)GlcNAc
# Summary of the method: as §1
# [31] = target: GlcNAc(b1-2)Man(a1-3)[GlcNAc(b1-4)][GlcNAc(b1-2)Man(a1-6)]Man(b1-4)GlcNAc(b1-4)[Fuc(a1-6)]GlcNAc
# Summary of the method: as §1
# [32] = target: GlcNAc(b1-2)[GlcNAc(b1-4)]Man(a1-3)[GlcNAc(b1-2)Man(a1-6)]Man(b1-4)GlcNAc(b1-4)GlcNAc
# Summary of the method: as §1
# [33] = target: GlcNAc(b1-2)[GlcNAc(b1-4)]Man(a1-3)[GlcNAc(b1-4)][GlcNAc(b1-2)Man(a1-6)]Man(b1-4)GlcNAc(b1-4)GlcNAc
# Summary of the method: as §1
# [34] = target: GlcNAc(b1-2)[GlcNAc(b1-4)]Man(a1-3)[GlcNAc(b1-4)][GlcNAc(b1-2)[GlcNAc(b1-6)]Man(a1-6)]Man(b1-4)GlcNAc(b1-4)GlcNAc
# Summary of the method: as §1
# [35] = target: GlcNAc(b1-2)[GlcNAc(b1-4)]Man(a1-3)[GlcNAc(b1-4)][GlcNAc(b1-2)[GlcNAc(b1-6)]Man(a1-6)]Man(b1-4)GlcNAc(b1-4)[Fuc(a1-6)]GlcNAc
# Summary of the method: as §1
# [36] = target: GlcNAc(b1-2)[GlcNAc(b1-6)]Man(a1-6)[GlcNAc(b1-2)Man(a1-3)]Man(b1-4)GlcNAc(b1-4)GlcNAc
# Summary of the method: as §1
# [37] = target: GlcNAc(b1-2)[GlcNAc(b1-6)]Man(a1-6)[GlcNAc(b1-2)Man(a1-3)]Man(b1-4)GlcNAc(b1-4)[Fuc(a1-6)]GlcNAc
# Summary of the method: as §1
# [38] = target: GlcNAc(b1-2)[GlcNAc(b1-6)]Man(a1-6)[GlcNAc(b1-2)Man(a1-3)][GlcNAc(b1-4)]Man(b1-4)GlcNAc(b1-4)GlcNAc
# Summary of the method: as §1
binder,measurement,setting,value
B1,glycan array binding signal (z-score),[1],0.544
same,glycan array binding signal (z-score),[2],-0.071
same,glycan array binding signal (z-score),[3],1.44
same,glycan array binding signal (z-score),[4],-1.01
same,glycan array binding signal (z-score),[5],0.262
same,glycan array binding signal (z-score),[6],-0.369
same,glycan array binding signal (z-score),[7],0.327
same,glycan array binding signal (z-score),[8],-0.183
same,glycan array binding signal (z-score),[9],-0.059
same,glycan array binding signal (z-score),[10],0.137
same,glycan array binding signal (z-score),[11],0.207
same,glycan array binding signal (z-score),[12],-0.071
same,glycan array binding signal (z-score),[13],-0.203
same,glycan array binding signal (z-score),[14],0.602
same,glycan array binding signal (z-score),[15],-0.174
same,glycan array binding signal (z-score),[16],-0.719
same,glycan array binding signal (z-score),[17],-0.15
same,glycan array binding signal (z-score),[18],-0.694
same,glycan array binding signal (z-score),[19],0.096
same,glycan array binding signal (z-score),[20],-0.307
same,glycan array binding signal (z-score),[21],-0.256
same,glycan array binding signal (z-score),[22],-0.468
same,glycan array binding signal (z-score),[23],0.476
same,glycan array binding signal (z-score),[24],-0.161
same,glycan array binding signal (z-score),[25],1.95
same,glycan array binding signal (z-score),[26],-0.513
same,glycan array binding signal (z-score),[27],-0.419
same,glycan array binding signal (z-score),[28],0.112
same,glycan array binding signal (z-score),[29],0.544
same,glycan array binding signal (z-score),[30],-0.643
same,glycan array binding signal (z-score),[31],-0.101
same,glycan array binding signal (z-score),[32],-0.687
same,glycan array binding signal (z-score),[33],-0.721
same,glycan array binding signal (z-score),[34],-0.611
same,glycan array binding signal (z-score),[35],-0.612
same,glycan array binding signal (z-score),[36],0.099
same,glycan array binding signal (z-score),[37],0.713
same,glycan array binding signal (z-score),[38],0.034

# An excerpt of these results, as tab-separated lines.
binder	measurement	setting	value
B1	glycan array binding signal (z-score)	[12]	-0.071
same	glycan array binding signal (z-score)	[23]	0.476
same	glycan array binding signal (z-score)	[26]	-0.513
